## Results of single-concentration screens

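Whole-parasite assay of Trypanosoma brucei over 72 hours; the read-out is not stated. Concentration: 10 µM. The record gives no direction; compounds that gave an IC50 in retests scored well above the rest, so higher reads as stronger inhibition. Values scatter widely below zero; nearly all retest evidence comes from the higher of the two concentrations used. Of about 2,700 compounds tested this way, about 14 (0.51%) reached 50% or more in at least one test.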

Results are given as percent effect.
The controls that fix the scale are not given in the record; negative values are as filed.
Compounds were drawn at random from those tested, without regard to their results.

Compound | effect
CCn1cnnc1CNC(=O)N1CCC(C)CC1 | -66.08
CCCc1nc(C)c(C(=O)NCCn2nc3ccccn3c2=O)s1 | -58.07
CC(c1cccc(F)c1)N1CCN(Cc2nccn2C)CC1 (stereo not given) | -46.09
Cc1nc(CN(C)C2CCN(Cc3ccc(Cl)s3)C2)no1 (stereo not given) | -33.68
Cc1nc(C2CCCN2CC(=O)Nc2cc(C(C)(C)C)nn2C)no1 (stereo not given) | -29.99
COc1ccc(N(C)Cc2nc3c(cnn3C)c(=O)[nH]2)cc1OC | -21.98
Cc1nn(C)c(C)c1C1CCCN1C(=O)c1ccnc(N(C)C)c1 (stereo not given) | -21.13
CC(C)CN1CCN(C(=O)c2ccn(C)c(=O)c2)CC1 | -19.6
CC(Cn1ccnc1)NC(=O)N1CCN(Cc2cccs2)CC1 (stereo not given) | -10.63
Cc1noc(C)c1C(=O)NCCSCc1cccs1 | -52.95
COc1cccc2cc(CNC(=O)N3CCOC(C)(C)C3)oc12 | -21.36
CC(Cc1cccc(Cl)c1)NC(=O)Nc1cnn(CC(N)=O)c1 (stereo not given) | -14.45
Cc1cc(NC(=O)CN(CC2CCOC2)C2CC2)no1 (stereo not given) | -40.44
CCc1nnc2n1CCN(C(=O)c1nc(-c3ccco3)sc1C)C2 | 6.497
Cc1cnc(CN(C)C2CCN(CCCc3ccccc3)C2)o1 (stereo not given) | -19.1
COc1ccc(CNc2cnn(C)c(=O)c2Cl)cc1 | -8.869
NC(=O)Cn1cc(NC(=O)N2CCSCC2)cn1 | -63.31
Cc1nc(C)c(CN2CCC(N(C)Cc3noc(C4CC4)n3)C2)s1 (stereo not given) | -39.55
CN(CC(=O)N1CCCCC1Cn1cccn1)Cc1ccccc1 (stereo not given) | -13.78
COc1cccc(CN2CCCC2Cn2nc(C)nc2C)c1 (stereo not given) | -16.93
Cc1nc(CN2CCN(C(=O)c3ccnc(N(C)C)c3)CC2)cs1 | -53.43
Cc1nc(C2CCCN(C(=O)c3cccc4c3OCCO4)C2)no1 (stereo not given) | 2.045
N#CCCN(C(=O)CN1CCCC1c1ccsc1)c1ccccc1 (stereo not given) | -17.34
COc1c(C2CCCN2C(=O)c2ccc(C#N)c(C)n2)c(C)nn1C (stereo not given) | -24.86
COc1ccc(CC(=O)N2CCCC(n3cc(C)cn3)C2)c(OC)c1 (stereo not given) | -19.11
Cc1cnc(CN(C)C2CCN(CC(=O)Nc3nccs3)C2)o1 (stereo not given) | 13.73
CC(NCc1ccccc1Cl)c1ccc(OCC(=O)NC2CC2)cc1 (stereo not given) | -11.87
CN(C(=O)C1CCCC1)C(c1cccc(F)c1)c1ccccn1 (stereo not given) | -53.52
COCc1nc(C(=O)N2CCCC2Cn2cc(C)cn2)cs1 (stereo not given) | -27.89
Cc1oc(C)c(C(=O)NCc2ccccc2CN(C)C)c1C | -0.9196
COC(=O)c1cccn1C1CCN(Cc2cccc(C(N)=O)c2)CC1 | -22.47
CC(=O)Nc1nc(CN2CCOC(Cn3cccn3)C2)cs1 (stereo not given) | -16.67
Nc1nc(CN2CCCC2Cn2cncn2)nc2ccccc12 (stereo not given) | -61.59
COC(=O)C(NC(=O)C1CC1)c1cc(F)ccc1F (stereo not given) | -26.62
Cc1cnn(CCNCc2nnc(-c3ccc(F)cc3)o2)c1 | -61.29
CN(C)c1ccc(NC(=O)NCc2cccnc2N(C)C)cn1 | -35.48
c1cnnc(N2CCCC2CNc2ncnc3ccsc23)c1 (stereo not given) | -16.17
O=C(NCC(F)(F)F)C1CSCN1S(=O)(=O)c1ccc(F)cc1Cl (stereo not given) | -5.973
COc1ccccc1OCCNC1CCCN(Cc2noc(C)n2)C1 (stereo not given) | -16.98
CCNc1cc2c(nn1)CCN(C(=O)c1cc3cc(C)ccc3o1)C2 | -11.72

Data taken from ChEMBL document CHEMBL3988442, “University of Dundee, Small-Polar-MMV Screening Library” (2021).